The other results are listed elsewhere or left out. Shown are side measurements of this screen, not its main read-out; they come without a call. Most of these compounds were active or inconclusive in the main read-out, so they are no random draw. Potencies come from curve fits of mixed quality, noted in brackets.
Test: qHTS Assay for Lipid Storage Modulators in Drosophila S3 Cells;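 for cell number change: cells counted by Cell Tracker Red CMTPX staining in the red channel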
Conditions: BODIPY lipid droplet fluorescence, 18-24 h; for cell number change: measured here: cell count max response, cells fed with added oleic acid
How it was run: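 Laser-scanning cytometry quantifies lipid droplet accumulation (500–530 nm total intensity; droplet/cell object ratio) in oleic acid-fed (400 uM added) Drosophila S3 cells treated with a concentration series. 20 uM Triacsin C defined 100% inhibition.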

[1] = measured here: lipid fluorescence (Fed channel) AC50, cells fed with added oleic acid
[2] = measured here: cell number channel AC50, cells fed with added oleic acid

Row | SMILES | cell number change [%] | AC50 [1] | AC50 [2]
1 | COc1ccc(-n2nnnc2SCC(=O)Nc2cccc(O)c2)cc1 | 9.97 |  | 
2 | COc1ccc(N/C=C/C(=O)c2ccccc2)cc1 | -12.8 | 29.1 µM [falling, single point] | 
3 | Cc1cc(C)n2nc(CC(=O)NC3CCCCCC3)nc2n1 | -7.5 | 1.46 µM [rising, full curve, poor fit] | 
4 | COC(=O)c1ccc(N(CC(=O)NC2CCCC2)C(=O)c2ccc(C)s2)cc1 | -10.3 | 29.1 µM [rising, single point] | 
5 | Cc1ccc(Cn2nc(C)c(NC(=O)CCCn3nc(C)c([N+](=O)[O-])c3C)c2C)cc1 | -37.9 |  | 
6 | CN1CCN(Cc2cc(=O)oc3cc4c(cc23)CCC4)CC1 | 27.1 | 4.11 µM [rising, single point] | 
7 | CC(=O)N1N=C(c2ccc(NS(=O)(=O)c3ccccc3)cc2)CC1c1ccco1 (stereo not given) |  | 2.59 µM [falling, full curve] | 
8 | CCOC(=O)N1CCC(NC(=O)c2ccc3c(c2)N(Cc2ccc(F)cc2)CCS3)CC1 | -50.1 | 0.00461 µM [falling, full curve, poor fit] | 18.4 µM [falling, partial curve, poor fit]
9 | Cc1ccc(S(=O)(=O)Nc2nc(C)cc(-n3nc(C)cc3C)n2)cc1 |  |  | 2.91 µM [rising, single point]
10 | COc1ccc(-c2cc3n(n2)CCc2nc4ccccc4n2-3)cc1 | -49.8 |  | 16.4 µM [falling, single point]
11 | Cc1nnc(SCCOc2ccccc2)s1 | -31.9 |  | 29.1 µM [falling, single point]
12 | CS(=O)(=O)Nc1ccc(C2=NN(S(C)(=O)=O)C(c3ccccc3)C2)cc1 (stereo not given) | -7.72 |  | 0.651 µM [rising, single point]
13 | C=CCOc1c(Cl)cc(CNCCC)cc1Cl | -8.15 | 1.3 µM [falling, full curve, poor fit] | 
14 | COc1ccc(CNS(=O)(=O)NCc2ccc(C)cc2)cc1 | -24.6 |  | 0.103 µM [falling, full curve, poor fit]
15 | CCOC(=O)CC(NC(=O)C(CC)c1ccccc1)c1ccccc1Cl (stereo not given) | -2.82 | 16.4 µM [falling, single point] | 
16 | O=[N+]([O-])c1ccc(S(=O)(=O)Nc2ccc3c(c2)OCCO3)cc1 | 12.9 |  | 
17 | Cc1ccc(C(=O)/C=C/C(=O)O)cc1 | -49 | 18.4 µM [falling, partial curve] | 20.6 µM [falling, single point]
18 | Cn1c2c(c(=O)n(C)c1=O)C(CC(=O)Nc1ccccc1)C(=O)N2 (stereo not given) | 57.4 |  | 29.1 µM [rising, single point]
19 | O=C(CSc1nncc2ccccc12)Nc1ccccc1 | -13.9 |  | 
20 | Cc1ccccc1-n1c(=O)cc(N2CCCCCC2)[nH]c1=O | 1.09 | 0.731 µM [falling, partial curve] | 0.517 µM [falling, partial curve]

Row | SMILES | cell number change [%] | AC50 [1] | AC50 [2]
21 | CC(=O)NCCc1cnc[nH]1 | 0.291 |  | 
22 | CCn1cc(CN2CCC(C(=O)Nc3ccc(Oc4ccccc4)nc3)CC2)cn1 | 78.9 |  | 25.9 µM [rising, single point]
23 | O=C1C2=C(C(=O)c3ccccc31)C1O[C@](CCCCN3C(=O)c4ccccc4C3=O)(Cc3c1ccc1ccccc31)O2 | 29.6 | 0.473 µM [rising, full curve, poor fit] | 
24 | CC1CCCCN1CC(=O)NC(c1ccccc1)c1ccccc1 (stereo not given) | -0.873 | 14.6 µM [falling, partial curve] | 
25 | O=C(CC(c1ccccc1)c1ccccc1)NCCOCc1ccccc1 | -18.1 | 18.4 µM [falling, partial curve] | 
26 | O=C(COc1cc(Cl)c(Cl)cc1Cl)Nc1cccc(O)c1 | -37.6 | 0.146 µM [falling, full curve, poor fit] | 23.1 µM [falling, single point]
27 | Cc1ccccc1S(=O)(=O)Cc1ccc(C(=O)NCCCOC(C)C)o1 | 48 | 1.16 µM [rising, full curve] | 1.46 µM [rising, full curve]
28 | Cc1ccc(NC(=O)C2CCN(S(=O)(=O)c3c(C)noc3/C=C/N(C)C)CC2)cc1 | 5.66 | 18.4 µM [rising, partial curve] | 
29 | COc1cc(/C=N/NC(=O)C(=O)NCc2cccnc2)cc(OC)c1OC | 10.9 | 0.731 µM [falling, single point] | 
30 | CC(C)OC(=O)Cn1c(-c2ccccc2)c(-c2ccccc2)nnc1=O | -16 |  | 
31 | COC(=O)c1ccccc1NC(=O)CSc1nc(NC(=O)c2ccccc2)c2c(C)c(C)oc2n1 | -1.42 | 0.411 µM [rising, partial curve] | 
32 | O=C(Nc1ccc(Cl)c(Cl)c1)Nc1ccc(N2CCCC2)c(S(=O)(=O)Nc2ccccc2Cl)c1 | -42.7 | 14.6 µM [falling, partial curve] | 18.4 µM [falling, single point]
33 | Cc1cccc(OCC(=O)N/N=C/C=C/c2ccco2)c1 | -47 | 0.82 µM [falling, full curve, poor fit] | 5.17 µM [falling, partial curve, poor fit]
34 | O=C(NCCCCc1ccccc1)Nc1ccc(F)cc1 | 40.4 |  | 0.501 µM [rising, full curve]
35 | O=S(=O)(CCN1CCOCC1)c1ccc(Oc2ccc(S(=O)(=O)CCN3CCOCC3)cc2)cc1 | -37.4 |  | 4.61 µM [falling, partial curve]
36 | Cc1cccc2c(=O)c(C(=O)N3CCCCCC3)c[nH]c12 | -0.203 |  | 
37 | Cc1oc2c(c1C(=O)NCc1cc(C(=O)O)co1)CCCC2 | 34.9 | 0.164 µM [falling, full curve, poor fit] | 8.2 µM [rising, partial curve, poor fit]
38 | COc1ccc(S(=O)(=O)N(C)C)cc1NCC(=O)Nc1ccc(F)cc1F | 16.7 |  | 4.61 µM [falling, single point]
39 | COC(=O)[C@@]12CCCCN1[C@H](c1ccc(-c3ccc(F)cc3)cc1)[C@@H]1C(=O)N(C)C(=O)[C@@H]12 | -17.4 | 9.2 µM [falling, partial curve] | 0.116 µM [falling, full curve, poor fit]
40 | COc1ccc(-c2nnc(SCC(=O)N(Cc3ccccc3)C(C)(C)C)o2)cc1OC | -33.1 | 29.1 µM [falling, partial curve, poor fit] | 14.6 µM [falling, partial curve, poor fit]

Look-ups from the results shown.
In cell number change [%], O=S(=O)(CCN1CCOCC1)c1ccc(Oc2ccc(S(=O)(=O)CCN3CCOCC3)cc2)cc1 has -37.4
In cell number change [%], COc1ccc(-n2nnnc2SCC(=O)Nc2cccc(O)c2)cc1 has 9.97
In AC50 [1], CC1CCCCN1CC(=O)NC(c1ccccc1)c1ccccc1 (stereo not given) has 14.6 µM [falling, partial curve]

Continuation:

Row | SMILES | cell number change [%] | AC50 [1] | AC50 [2]
41 | CS(=O)(=O)C1=NSC2=NC(=O)/C(=C\c3ccc(-c4ccccc4)o3)C(=N)N21 | 13.7 | 1.84 µM [rising, full curve, poor fit] | 
42 | CNc1ccccc1C(C)(C)c1cc(-c2cccc(Br)c2)no1 |  | 4.61 µM [falling, partial curve, poor fit] | 
43 | COc1ccc(N=C(C)C2=C(O)c3ccccc3C2=O)cc1 | -31.6 | 13 µM [falling, partial curve] | 0.231 µM [falling, full curve, poor fit]
44 | CC(=O)c1ccccc1OCCOc1ncnc2sccc12 | 37.9 |  | 1.64 µM [rising, full curve, poor fit]
45 | Cc1ccccc1Oc1nc2c(c(=O)n(C)c(=O)n2C)n1C |  | 29.1 µM [rising, partial curve, poor fit] | 
46 | COCCN1CCN(C(=O)c2cc(COc3ccc(F)cc3F)on2)CC1 | 4.95 |  | 
47 | Cc1ccc(N(CC(=O)N2CCOCC2)S(C)(=O)=O)cc1 | -19.9 | 20.6 µM [falling, single point] | 
48 | Cc1cc(C)nc(N2CCN(c3nnnn3-c3ccccc3)CC2)n1 | 30.1 |  | 23.1 µM [rising, single point]
49 | Cc1cc(NS(=O)(=O)c2ccc(NC(=O)C(C)Oc3ccc4c(C)cc(=O)oc4c3)cc2)no1 (stereo not given) | -3.97 | 0.164 µM [falling, full curve] | 
50 | CCC(=O)c1ccc(OCC(=O)OCC(=O)NCc2cccs2)cc1 | 73.9 | 20.6 µM [rising, single point] | 29.1 µM [rising, single point]
51 | COc1ccc(OC)c(NC(=O)c2cccnc2)c1 | -6.93 |  | 
52 | CCN(CC)S(=O)(=O)c1ccc(N2CCOCC2)c(NC(=O)c2ccc3c(c2)OCCO3)c1 | 35.1 |  | 29.1 µM [rising, single point]
53 | Cc1cc(Oc2ccccc2)nc(SCC(N)=O)n1 | -5.7 |  | 0.411 µM [falling, partial curve]
54 | CC(C(=O)Nc1ccc(O)c(C(=O)O)c1)N1C(=O)/C(=C/c2cccs2)SC1=S (stereo not given) | -5.19 |  | 
55 | Cc1ccccc1C(=O)NCC(c1ccco1)N1CCc2ccccc21 (stereo not given) | 41.7 |  | 6.51 µM [rising, partial curve]
56 | COc1ccc(Oc2nc(C(F)(F)F)nc3ccccc23)cc1 |  | 3.26 µM [rising, partial curve, poor fit] | 1.84 µM [rising, partial curve]
57 | COc1ccccc1CNC(=O)C(=O)NCC1OCCN1S(=O)(=O)c1ccc(Br)cc1 (stereo not given) | -2.09 |  | 
58 | O=C(O)Cn1cc(/C=C2/NC(=O)N(c3ccc(Cl)cc3)C2=O)c2ccccc21 |  |  | 0.651 µM [rising, single point]
59 | CC(CN1C(C)CCCC1C)OC(=O)c1ccc(Cl)cc1Cl (stereo not given) | 39 |  | 8.2 µM [rising, single point]
60 | CN(Cc1cccnc1)C(=O)c1cc(S(=O)(=O)Nc2ccccc2F)ccc1Cl | 6.5 |  | 

— PubChem BioAssay AID2685 (National Center for Advancing Translational Sciences (NCATS), 2010)
